# Measured values from PubChem BioAssay AID1347075 (National Center for Advancing Translational Sciences (NCATS), 2019).
# The whole screen tested about 400,000 compounds, of which about 5,500 (1.4%) were called active. This list was built around the results that the source calls inconclusive (neither active nor inactive); the mix of calls is not that of the screen. Calls come from the whole dose curve; as a rule, active = well fitted cell-killing curve with a large enough effect; inconclusive = small, poorly fitted or top-dose-only effect, or effect the other way; inactive = flat fitted curve, though single readings scatter. Where the call is inconclusive, the potency comes from a doubtful curve fit.
# Assay: qHTS assay for MDR1-selective chemotherapeutics: Primary screen using the parental adenocarcinoma cell KB-3-1; note: nearly all actives have a fitted effect of over 60% in size
# Settings: KB-3-1 viability, CellTiter-Glo ATP luminescence, 72 h; activity change, negative = cytotoxic: at 46.1 µM (top of the series)
# Procedure, shortened: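 Parental KB-3-1 adenocarcinoma cells in phenol-red-free DMEM with 10% FBS were pin-treated with compounds at several concentrations, incubated 72 h at 37 °C, and viability read by CellTiter-Glo luminescence; concentration-effect curves were fitted after normalization.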
# % is set by controls: 0 for no effect and ±100 for the full control effect; potency is the fitted concentration of half-maximal effect.
SMILES,"activity change, negative = cytotoxic",Potency
Cc1cc(Br)ccc1NC(=O)CSCc1c(C)noc1C,inactive: -13.6%,–
CN(C)S(=O)(=O)c1cccc(NC(=O)c2cccc(S(=O)(=O)N3CCc4ccccc43)c2)c1,–,"inconclusive: 13 µM [cytotoxic, partial curve, poor fit]"
COCCCNC(=O)Cc1c(C)c2c(cc(C)c3c(C(C)(C)C)coc32)oc1=O,–,active: 5.17 µM
CCc1nnc(NC(=O)c2ccc(S(=O)(=O)N3CCc4ccccc4C3)cc2)s1,inactive: 1.3%,–
CCOc1ccc2[nH]c3ncccc3c(=O)c2c1,–,"inconclusive: 9.2 µM [cytotoxic, partial curve]"
COc1ccc(COc2cc(-c3cccc(OC)c3)nc3ccc(N)cc23)cc1,–,"inconclusive: 2.59 µM [cytotoxic, partial curve, poor fit]"
O=C(Nc1cccc(NC(=O)c2cccs2)c1)c1ccc([N+](=O)[O-])o1,–,active: 16.4 µM
Cc1csc2nc(O)c(C(=O)NCCCc3ccccc3)c(=O)n12,–,"inconclusive: 20.6 µM [cytotoxic, partial curve, poor fit]"
O=C(CN1C(=O)C2CCCCN2c2ccc(C(=O)N3CCCC3)cc21)NCc1ccc(F)cc1 (stereo not given),inactive: 3.94%,–
CC1(C)CC2(C)OC2C2(C1)N=NC(=Nc1ccccc1)O2 (stereo not given),–,"inconclusive: 32.6 µM [cytotoxic, partial curve, poor fit]"
CCc1nnc(NC(=O)CSc2nnc(C)n2-c2ccc(C)cc2)s1,inactive: -0.142%,–
O=C(COC(=O)c1ccccc1F)NC1CC1,inconclusive: -31.4% [cytotoxic],–
CCCNC(=O)CN1C(=O)COc2ccc(S(=O)(=O)N3CCCC3)cc21,inactive: 0%,–
COc1cccc(C(=O)Nc2sc3c(c2C(=O)O)CCCC3)c1,–,active: 18.4 µM
COc1cc(O)c(CCC(=O)c2ccc(OC)c(OC)c2)c(OC)c1,inactive: -17%,–
CCOC(=O)C1(CCc2ccccc2)CCN(Cc2c(O)cccc2OC)CC1,–,"inconclusive: 23.1 µM [cytotoxic, single point]"
Nc1cccc(-c2nc3ccc(C(=O)c4ccccc4)cc3[nH]2)c1,–,active: 6.51 µM
CCCC(=O)Nc1cccc(NC(=O)CN2CCN(c3ccccc3OC)CC2)c1,inactive: -1.04%,–
CC1(C(=O)NC2CCN(Cc3ccccc3)CC2)CCN1CCc1ccccc1 (stereo not given),inactive: -0.0882%,–
N/C(=N/O)c1nc(N2CCCCC2)nc(N2CCCCC2)n1,–,"inconclusive: 16.4 µM [cytotoxic, single point]"
COc1cccc(C2C3(C#N)C(N)=NC(OC)(OC)C23C#N)c1 (stereo not given),inactive: -6.13%,–
CCOc1ccc(N2C(=O)c3[nH]nc(-c4ccccc4)c3C2c2ccc(O)c(OC)c2)cc1 (stereo not given),–,"inconclusive: 18.4 µM [cytotoxic, single point]"
CCC(=O)N(Cc1cc2cc(OC)ccc2[nH]c1=O)c1cc(C)ccc1C,–,"inconclusive: 29.1 µM [cytotoxic, single point]"
CC(C)c1ccc(-c2c(C#N)c(N)nc(SCC(=O)N3CCCCC3)c2C#N)cc1,–,"inconclusive: 20.6 µM [cytotoxic, single point]"
O=c1c2[nH]c3ccc(F)cc3c2ncn1CCN1CCN(Cc2ccccc2)CC1,–,"inconclusive: 20.6 µM [cytotoxic, single point]"

SMILES,"activity change, negative = cytotoxic",Potency
COC(=O)c1ccc(C2CC(=O)Nc3c2c(C)nn3-c2nc(C)cc(C)n2)cc1 (stereo not given),inactive: -1.34%,–
C/C(=N/NC(=O)C1COc2ccccc2O1)c1ccco1 (stereo not given),–,"inconclusive: 0.0065 µM [cytotoxic, full curve]"
COc1ccc(CNC(=O)c2ccc3c(c2)N=C(C)c2c(C)ccc(C)c2S3)cc1,–,active: 4.61 µM
Cc1cc(C)cc(NC(=O)CC(C)n2nc(C)cc2C)c1 (stereo not given),inactive: 3.37%,–
CC1(c2cccc([N+](=O)[O-])c2)CC(C)(C)N(C(=O)c2ccccc2)c2ccccc21 (stereo not given),–,"inconclusive: 29.1 µM [cytotoxic, single point]"
C=C1C(=O)OC2C=C(CO)C3OC3C3OC3(C)CC(OC(=O)/C(=C/C)COC(C)=O)C12 (stereo not given),–,"inconclusive: 23.1 µM [cytotoxic, single point]"
O=C(N/N=C/c1ccccc1O)c1cc[n+]([O-])cc1,inactive: 3.53%,–
CC1CN(c2sc(S(C)(=O)=O)nc2S(=O)(=O)c2ccc(Cl)cc2)CC(C)O1 (stereo not given),inactive: -5.4%,–
CCN(CC(=O)NCc1ccc(F)cc1)C(=O)c1cccnc1SC,inactive: 1.09%,–
CCOC(=O)c1c(S(=O)(=O)N2CCC(C(=O)Nc3ccc(C)cn3)CC2)c(C)n(C)c1C,inactive: 14.9%,–
O=C(CNC(=O)c1ccc2c(c1)OCO2)N/N=C(Br)/C=C/c1ccccc1,–,"inconclusive: 29.1 µM [cytotoxic, single point]"
Cc1ccc(S(=O)(=O)N(C)C)cc1NC(=O)c1cncc(Br)c1,–,"inconclusive: 18.4 µM [cytotoxic, single point]"
N#C/C(=N\Nc1ccccc1Cl)C(=O)c1ccccc1,–,active: 14.6 µM
c1ccc(-n2cc(CN3CCC(N4CCOCC4)CC3)c(-c3ccc4c(c3)OCO4)n2)cc1,inactive: 16%,–
CCC(NC(=O)NC1CCCCC1)c1ccccc1 (stereo not given),inactive: 11.3%,–
CC(C)(C)c1ccc(C(=O)C[n+]2ccc(Cl)c3ccc(Cl)cc32)cc1,–,active: 0.259 µM
COC(=O)c1sc(N)c(C(=O)OC)c1Cn1ncc(Cl)c(Cl)c1=O,–,"inconclusive: 20.6 µM [cytotoxic, single point]"
c1ccc(Nc2cc(-c3ccccc3)nc3ncnn23)cc1,inactive: 0.425%,–
Cn1c(Sc2ccc(Cl)cc2)c(C=O)c2ccccc21,–,"inconclusive: 23.1 µM [cytotoxic, partial curve]"
CCOc1cc(C2C3=C(CCCC3=O)Nc3ccc4ncccc4c32)ccc1O (stereo not given),–,active: 13 µM
CN(C)CCNc1cccc2sc3ccc(O)cc3c(=O)c12,–,active: 16.4 µM
COc1ccc(N/C(=N\c2nc(C)cc(C)n2)NC(C)=O)cc1OC,inactive: -3.97%,–
Cc1cc(N/N=C/c2ccc(O)c(C)c2O)nc(-c2ccccc2O)n1,–,"inconclusive: 25.9 µM [cytotoxic, partial curve, poor fit]"
Cc1ccc(CNC(=O)c2cc(-c3ccccc3C)n(CC3CC(c4cccc([N+](=O)[O-])c4)=NO3)n2)cc1 (stereo not given),inactive: 6.56%,–
Cc1cc(=O)[nH]c2ccc(Cl)cc12,–,active: 2.31 µM

SMILES,"activity change, negative = cytotoxic",Potency
COc1cc2c(NC3CCN(C(C)C)CC3)nc(N3CCCN(C)CC3)nc2cc1OCCOCCN1CCCC1,–,active: 11.6 µM
COc1ccccc1CN1CCC(CNC(=O)c2cnn(-c3ccc(Cl)cc3)c2C2CCN(C(=O)OC(C)(C)C)CC2)CC1,–,active: 16.4 µM
Cc1c(C(C)CCCO)oc(=O)c2c1Oc1c(C)c(C(C)C[C@H](C)O)oc(=O)c1C2 (stereo not given in full),–,"inconclusive: 1.3 µM [rising, full curve]"
CCCCCCn1cc(CN2CC(N3CCN(CCN(C)C)CC3)CS2(=O)=O)nn1 (stereo not given),inactive: 3.04%,–
COc1ccccc1NC(=O)C(=O)NCCC1CCCCN1S(=O)(=O)c1cccs1 (stereo not given),–,"inconclusive: 32.6 µM [cytotoxic, single point]"
Cc1ccc(Cn2ccc(NC(=O)c3nn(C)cc3[N+](=O)[O-])n2)cc1,–,"inconclusive: 20.6 µM [cytotoxic, single point]"
Cc1ccc(N=C2NC(=O)/C(=C/c3cccn3C)S2)cc1C,–,"inconclusive: 29.1 µM [cytotoxic, single point]"
CCc1ccc(-c2cc(C)no2)cc1S(=O)(=O)N1CCN(c2ccccc2OC)CC1,–,"inconclusive: 20.6 µM [cytotoxic, single point]"
Cc1ccc(N=Nc2c(C)[nH][nH]c2=O)c(C)c1,–,"inconclusive: 2.91 µM [cytotoxic, full curve]"
Cc1ccc(F)c(NC(=O)c2c(-c3ccccc3)noc2C)c1,inactive: 1.15%,–
CCCCNS(=O)(=O)c1ccc2nc(-c3cccnc3)cc(C(=O)NCCOC)c2c1,–,"inconclusive: 10.3 µM [rising, partial curve]"
c1ccc(CN2C3=NCCCN3c3ccccc32)cc1,–,"inconclusive: 20.6 µM [cytotoxic, single point]"
Cc1ccc(CN=C2Nc3ccccc3CS2)cc1,–,"inconclusive: 20.6 µM [cytotoxic, single point]"
O=[N+]([O-])c1ccc(N2CCN(C(=S)NC3CCCCC3)CC2)cc1,–,"inconclusive: 18.4 µM [cytotoxic, partial curve]"
COc1cc(-c2nnc(-c3ccccc3)o2)cc(OC)c1OC,inactive: -5.36%,–
O=C1CC(N2CCN(c3ccccc3)CC2)C(=O)N1c1ccc2c(c1)OCCO2 (stereo not given),inactive: -3.21%,–
CCc1cccc2c(C(=O)C(NC(C)CC)c3ccccc3)c[nH]c12 (stereo not given),inactive: -3.35%,–
O=C(NC(=S)Nc1ccccn1)c1cccc([N+](=O)[O-])c1,inactive: 15%,–
Cc1ccn2c(=O)c(NC(=O)c3ccc(Br)o3)c(C)nc2c1,–,"inconclusive: 29.1 µM [rising, single point]"
C=CSc1sc(Cl)c(N2CCOCC2)c1[N+](=O)[O-],–,"inconclusive: 29.1 µM [cytotoxic, single point]"
CCOc1ccc(N(CC)S(=O)(=O)N2CCCC(C(=O)NCCc3ccc(OC)cc3)C2)cc1 (stereo not given),–,"inconclusive: 20.6 µM [cytotoxic, partial curve, poor fit]"
COc1ccc(NC(=S)Nc2nc(CC(=O)Nc3ccccc3OC)cs2)cc1,–,"inconclusive: 29.1 µM [cytotoxic, single point]"
COC(=O)c1ccccc1NC(=O)Cn1c(=O)n(-c2cccc(C(F)(F)F)c2)c(=O)c2c(C)c(C)sc21,–,"inconclusive: 20.6 µM [rising, single point]"
O=[N+]([O-])c1ccc(Sc2ccncn2)c([N+](=O)[O-])c1,–,active: 11.6 µM
CN(C(=O)COC(=O)/C=C/c1ccccc1)C1CCS(=O)(=O)C1 (stereo not given),inactive: -5.23%,–

# Molecules from the list above that have a tert-butyl group, in the order listed:
SMILES,"activity change, negative = cytotoxic",Potency
COCCCNC(=O)Cc1c(C)c2c(cc(C)c3c(C(C)(C)C)coc32)oc1=O,–,active: 5.17 µM
CC(C)(C)c1ccc(C(=O)C[n+]2ccc(Cl)c3ccc(Cl)cc32)cc1,–,active: 0.259 µM
COc1ccccc1CN1CCC(CNC(=O)c2cnn(-c3ccc(Cl)cc3)c2C2CCN(C(=O)OC(C)(C)C)CC2)CC1,–,active: 16.4 µM
